Assay [1] addresses ARPC1–GFP (P. berghei). Briefly: affinity purification with mass spectrometry; GFP-Trap agarose on lysates of purified non-activated P. berghei gametocytes, fixed immediately in 1% formaldehyde and quenched with glycine; enrichment against PbGFPcon gametocytes; four replicates.
Assay [2] has as its target ARPC1–GFP (P. berghei). Briefly: affinity purification with mass spectrometry; GFP-Trap agarose on lysates of purified P. berghei gametocytes activated 4 min at 19 °C in ookinete medium, fixed in 1% formaldehyde and quenched with glycine; enrichment against PbGFPcon gametocytes; four replicates.
Assay [3] concerns the target ARPC2–YFPint (P. berghei). Described as above.

Chains of the proteins cited; added tags and fusions are not shown. Lines headed by an entry give the natural chain unless they say otherwise; changes in a name come on top.
UniProt A0A509AIH3: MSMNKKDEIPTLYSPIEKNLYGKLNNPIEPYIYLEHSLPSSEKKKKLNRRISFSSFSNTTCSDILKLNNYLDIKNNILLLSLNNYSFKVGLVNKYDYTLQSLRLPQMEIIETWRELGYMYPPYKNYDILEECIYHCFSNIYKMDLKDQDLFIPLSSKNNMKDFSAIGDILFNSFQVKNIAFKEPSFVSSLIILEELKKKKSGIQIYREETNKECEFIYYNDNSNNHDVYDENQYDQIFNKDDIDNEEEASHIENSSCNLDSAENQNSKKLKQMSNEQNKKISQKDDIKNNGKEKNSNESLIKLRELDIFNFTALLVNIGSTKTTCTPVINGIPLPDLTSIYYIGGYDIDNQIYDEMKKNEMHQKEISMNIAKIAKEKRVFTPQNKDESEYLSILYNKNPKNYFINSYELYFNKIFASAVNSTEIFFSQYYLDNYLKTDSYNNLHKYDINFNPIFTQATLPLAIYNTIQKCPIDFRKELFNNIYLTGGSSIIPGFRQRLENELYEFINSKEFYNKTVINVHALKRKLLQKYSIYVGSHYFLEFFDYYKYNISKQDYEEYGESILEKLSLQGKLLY
UniProt A0A509AF39: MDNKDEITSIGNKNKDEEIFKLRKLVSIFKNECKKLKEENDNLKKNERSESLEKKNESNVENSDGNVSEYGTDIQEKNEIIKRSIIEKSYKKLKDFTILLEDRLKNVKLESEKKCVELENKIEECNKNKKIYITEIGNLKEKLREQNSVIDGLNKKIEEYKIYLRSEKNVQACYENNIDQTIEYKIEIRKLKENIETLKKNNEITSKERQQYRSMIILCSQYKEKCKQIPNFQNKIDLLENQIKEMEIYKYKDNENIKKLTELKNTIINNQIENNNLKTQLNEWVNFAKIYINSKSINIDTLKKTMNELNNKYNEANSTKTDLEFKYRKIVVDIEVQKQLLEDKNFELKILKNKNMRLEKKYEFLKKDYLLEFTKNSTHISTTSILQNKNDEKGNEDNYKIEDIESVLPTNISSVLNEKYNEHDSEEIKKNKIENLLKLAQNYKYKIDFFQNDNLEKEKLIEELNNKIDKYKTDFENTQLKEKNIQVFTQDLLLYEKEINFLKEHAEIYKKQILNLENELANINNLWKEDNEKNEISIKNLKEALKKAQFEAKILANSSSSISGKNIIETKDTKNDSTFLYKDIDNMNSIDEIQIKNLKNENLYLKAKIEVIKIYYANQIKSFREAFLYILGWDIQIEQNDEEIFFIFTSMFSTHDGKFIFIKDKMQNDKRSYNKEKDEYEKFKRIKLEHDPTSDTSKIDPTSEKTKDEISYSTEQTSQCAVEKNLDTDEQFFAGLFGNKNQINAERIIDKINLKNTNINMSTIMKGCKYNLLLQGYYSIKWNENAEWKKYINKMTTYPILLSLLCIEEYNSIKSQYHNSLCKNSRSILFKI
UniProt A0A509AML7: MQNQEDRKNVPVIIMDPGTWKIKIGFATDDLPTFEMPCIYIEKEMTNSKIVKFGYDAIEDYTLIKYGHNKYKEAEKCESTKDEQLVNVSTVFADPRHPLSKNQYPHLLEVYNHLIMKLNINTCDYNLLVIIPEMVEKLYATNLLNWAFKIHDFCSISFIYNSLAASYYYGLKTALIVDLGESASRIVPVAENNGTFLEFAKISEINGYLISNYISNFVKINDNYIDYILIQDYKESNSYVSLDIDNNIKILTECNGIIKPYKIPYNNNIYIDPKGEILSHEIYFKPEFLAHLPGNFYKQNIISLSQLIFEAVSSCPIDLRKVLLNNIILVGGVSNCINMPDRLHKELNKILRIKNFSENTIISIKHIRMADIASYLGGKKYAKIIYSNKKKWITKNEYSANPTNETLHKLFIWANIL

Results are given in words; binding and its absence hold for the method and conditions named. In cells and extracts the contact can be indirect. A yes stands for co-enrichment or nearness to the bait. Other partners may have been found. For part of these data: A no says only that the protein was not detected with the bait.

Consider Alp5a (from UniProt A0A509AIH3), for which the binding result is recorded as “no binding (only non-activated gametocytes)” in the assay with ARPC1–GFP (P. berghei) [1], “binds” with ARPC1–GFP (P. berghei) [2] and “binds” in assay [3].
For “apicomplexan-specific kinetochore protein 7 (from UniProt A0A509AF39)”, the binding result was “no binding (only non-activated gametocytes)” with ARPC1–GFP (P. berghei) [1], “binds” with ARPC1–GFP (P. berghei) [2] and “binds” in assay [3].
With Alp5b (from UniProt A0A509AML7), the binding result is listed as “no binding (only non-activated gametocytes)” in the assay with ARPC1–GFP (P. berghei) [1], “binds” with ARPC1–GFP (P. berghei) [2] and “binds” in assay [3].

Source of the values: PMC12222016.
